The target of assay [1] is FLAG-RitR, wild type (Streptococcus pneumoniae). Briefly: immunoprecipitation, non-reducing SDS-PAGE, anti-FLAG blot and mass spectrometry of the bands; S. pneumoniae cells grown anaerobically; lysis with 10 mM iodoacetamide; M2 FLAG beads.
The target in assay [2] is T1, FLAG-RitR, wild type (Streptococcus pneumoniae), A0ACD7.
T1 chain: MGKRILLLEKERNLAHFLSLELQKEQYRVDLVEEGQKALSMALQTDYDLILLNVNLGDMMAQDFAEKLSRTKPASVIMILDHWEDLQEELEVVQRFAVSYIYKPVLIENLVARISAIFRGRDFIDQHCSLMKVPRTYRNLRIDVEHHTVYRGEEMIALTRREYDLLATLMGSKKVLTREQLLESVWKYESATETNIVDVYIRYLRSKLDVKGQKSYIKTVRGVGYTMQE
As to the kind of experiment: immunoprecipitation, non-reducing SDS-PAGE, anti-FLAG blot and mass spectrometry of the bands; S. pneumoniae cells grown aerated or statically in 5% CO2; lysis with 10 mM iodoacetamide; M2 FLAG beads. To be noted: remark: other sources report otherwise.

No constants are given. Whether binding was seen depends on the method and setting. In cells and extracts the contact can be indirect. A yes stands for co-enrichment or nearness to the bait. Other partners may have been found. For some assays here: No binding means not detected with the bait. For some assays here: Where a sequence is shown, tags or fusion partners need not be part of it.

“FLAG-RitR, wild type (from UniProt A0ACD7PPZ9 1-229)”: the binding entry in assay [1] is given as “no binding (only cells grown anaerobically)”.

B1: FLAG-RitR, wild type, A0ACD7PPZ9 1-229 (protein)
chain: T1 chain
Regarding B1, in assay [2], the binding entry is “binds”.

These data come from PMC5965902.
